Reference: article PMC9192718
Results are given in words; binding and its absence hold for the method and conditions named. Some binding calls cover weakened binding; strength is not graded here. Sequences can lack the tags named with a protein. Values belong to the binder of their own block, whether it stands above or below them.

What was measured:
Experiment in all cases: two-hybrid; systematic, reciprocal; LexA DNA-binding domain (pMM5) and Gal4 activation domain (pMM6) fusions in mated budding yeast SGY37 and YPH500; X-Gal overlay, scanned after 16 hr
[1] = biological target: T1, Schizosaccharomyces pombe Vps28 (ESCRT-I), yeast two-hybrid fusion (Schizosaccharomyces pombe) (UniProt O13872)
T1 sequence: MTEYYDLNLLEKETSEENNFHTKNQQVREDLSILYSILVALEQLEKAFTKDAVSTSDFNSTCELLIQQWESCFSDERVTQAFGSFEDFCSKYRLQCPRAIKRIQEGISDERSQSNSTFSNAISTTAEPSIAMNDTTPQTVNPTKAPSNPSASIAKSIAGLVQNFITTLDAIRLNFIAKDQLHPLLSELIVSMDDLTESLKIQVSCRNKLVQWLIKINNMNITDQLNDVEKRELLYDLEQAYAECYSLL

[2] = biological target: T2, Schizosaccharomyces pombe Vps36 (ESCRT-II), yeast two-hybrid fusion (Schizosaccharomyces pombe) (UniProt O43038)
T2 sequence: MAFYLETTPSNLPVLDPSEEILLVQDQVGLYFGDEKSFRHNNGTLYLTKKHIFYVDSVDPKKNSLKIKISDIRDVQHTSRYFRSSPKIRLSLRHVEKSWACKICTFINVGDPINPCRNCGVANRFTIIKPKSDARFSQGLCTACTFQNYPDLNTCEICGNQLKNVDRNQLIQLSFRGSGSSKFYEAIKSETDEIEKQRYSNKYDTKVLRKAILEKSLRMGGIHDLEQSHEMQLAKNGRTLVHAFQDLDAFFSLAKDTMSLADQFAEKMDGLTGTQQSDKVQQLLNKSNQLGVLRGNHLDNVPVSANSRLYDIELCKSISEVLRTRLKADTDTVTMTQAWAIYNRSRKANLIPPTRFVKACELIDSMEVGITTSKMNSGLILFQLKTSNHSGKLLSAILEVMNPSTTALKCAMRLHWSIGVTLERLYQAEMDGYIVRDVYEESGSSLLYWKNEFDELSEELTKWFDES

[3] = biological target: T3, Schizosaccharomyces pombe Vps25 (ESCRT-II), yeast two-hybrid fusion (Schizosaccharomyces pombe) (UniProt O74967)
T3 sequence: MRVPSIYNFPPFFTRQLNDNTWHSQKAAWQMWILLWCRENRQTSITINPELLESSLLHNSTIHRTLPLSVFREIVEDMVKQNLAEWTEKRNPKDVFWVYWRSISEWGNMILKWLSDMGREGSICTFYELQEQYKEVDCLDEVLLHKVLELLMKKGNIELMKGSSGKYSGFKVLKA

[4] = biological target: T4, Schizosaccharomyces pombe Did4 (ESCRT-III), yeast two-hybrid fusion (Schizosaccharomyces pombe) (UniProt O14177)
T4 sequence: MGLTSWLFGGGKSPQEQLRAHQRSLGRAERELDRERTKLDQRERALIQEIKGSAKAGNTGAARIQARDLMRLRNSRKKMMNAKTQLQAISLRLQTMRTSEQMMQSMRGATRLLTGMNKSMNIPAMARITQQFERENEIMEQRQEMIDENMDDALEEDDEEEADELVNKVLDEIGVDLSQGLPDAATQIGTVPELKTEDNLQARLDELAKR

binding [2]: binds
B2: Schizosaccharomyces pombe Vps28 (ESCRT-I), yeast two-hybrid fusion (protein, UniProt O13872 1-248)
chain: T1 sequence

binding [3]: binds
B3: Schizosaccharomyces pombe Vps36 (ESCRT-II), yeast two-hybrid fusion (protein, UniProt O43038 1-467)
chain: T2 sequence

The remaining lines, values behind:

B1: Schizosaccharomyces pombe Sst6 (ESCRT-I), yeast two-hybrid fusion (protein, UniProt Q7Z992 1-487)
chain: MSDHAINEHPSRILNTIEKIRFWKNGLAEELELLFRKQCEDTFTLQAINIEVDTQDENKIEEVRIYLSTPAFDKTILTSACITVRSYYPSQPPIVQLLDEKGGKHKYTSLLLQLWKNERSVFNIYRLVQALIKQDFEREHTSPPELPTKLVNTIEKLKVKEENEAPPVIPAKPFSSSSEQHFRKVPALPSKLPPKPLKITANSSLGQETNSNSSSFQSTLFSLNTAPFSATSQQLVHDSVSLRRPSSNIPAQKPIPPKPEQNEIIITKDTPSLKDKYSKPALLPQKPKVSKGQIVQQVSVFSTGKKIESQSLLNLIDTDIETPLKGSSELLYSEDFKPNVDPVKIQQILHKQNKIIEEKWISQIRISKNLEVKQRLLDQERHALETLAKNIENNRFILGKRRRKAREALQKLDNLKDLSVQELFIIPSERELKYYELKRKDEKLDEGIRALNQALHHESIMPASWLKGIKLLARQQFLIRDEMLQYS
binding [1]: binds

B4: Schizosaccharomyces pombe Vps20 (ESCRT-III), yeast two-hybrid fusion (protein, UniProt O94318 1-226)
chain: MGVNSSKINDKDRSILSIKEQRDKLLRYSKRLEKIEQLEIDIARKCLRDSDKRGALRALKAKKLYSGLITQTYGQLGNIEQLLSTIEFTLIQKDVMFGLQEGTNLIRQLQADMPLERVGRICNDRDEAMSYVDEVNDMLQGRMSRDQEDEIQEELDSLIREQEDEKVKDLEKPGFTPSTGVDVLPSVPLKNAIPSLDESFPKAASVSNTSSAVVIDEELRKDPVLG
binding [3]: binds

B5: Schizosaccharomyces pombe Vps24 (ESCRT-III), yeast two-hybrid fusion (protein, UniProt O14296 1-231)
chain: MQTVRSYFFGPTPQEQNRKWQSIIRKEQRQLDRQVYHLKAGRKKAEVQLKQLAKQSDITNMRILAKEIARANRHGKRLAESKALLGSLSLQLNDQMAMLKIQGTMQSSTKIMQDVSSLIRLPQLSETMRNLSMELTKAGVLEEMRDEMFLPVEDDEELMDLADEDEEVQEILTKYNVIPAPSEKAADAATHREQSLKQALPSLSNGIAKDSTEIDEEQLLDIRDKLDALKS
binding [4]: binds
